In paper doi:10.1101/2023.11.28.568967:
Like-named read-outs stand apart in the source and are kept apart here. Results are given in words; binding and its absence hold for the method and conditions named. In cells and extracts the contact can be indirect. Some entries that bind do so weakly or less than the wild type.

By UniProt entry, the sequences of proteins in these tests, tags left out. Residues count along the entry.
UniProt O35375, residues 21-931: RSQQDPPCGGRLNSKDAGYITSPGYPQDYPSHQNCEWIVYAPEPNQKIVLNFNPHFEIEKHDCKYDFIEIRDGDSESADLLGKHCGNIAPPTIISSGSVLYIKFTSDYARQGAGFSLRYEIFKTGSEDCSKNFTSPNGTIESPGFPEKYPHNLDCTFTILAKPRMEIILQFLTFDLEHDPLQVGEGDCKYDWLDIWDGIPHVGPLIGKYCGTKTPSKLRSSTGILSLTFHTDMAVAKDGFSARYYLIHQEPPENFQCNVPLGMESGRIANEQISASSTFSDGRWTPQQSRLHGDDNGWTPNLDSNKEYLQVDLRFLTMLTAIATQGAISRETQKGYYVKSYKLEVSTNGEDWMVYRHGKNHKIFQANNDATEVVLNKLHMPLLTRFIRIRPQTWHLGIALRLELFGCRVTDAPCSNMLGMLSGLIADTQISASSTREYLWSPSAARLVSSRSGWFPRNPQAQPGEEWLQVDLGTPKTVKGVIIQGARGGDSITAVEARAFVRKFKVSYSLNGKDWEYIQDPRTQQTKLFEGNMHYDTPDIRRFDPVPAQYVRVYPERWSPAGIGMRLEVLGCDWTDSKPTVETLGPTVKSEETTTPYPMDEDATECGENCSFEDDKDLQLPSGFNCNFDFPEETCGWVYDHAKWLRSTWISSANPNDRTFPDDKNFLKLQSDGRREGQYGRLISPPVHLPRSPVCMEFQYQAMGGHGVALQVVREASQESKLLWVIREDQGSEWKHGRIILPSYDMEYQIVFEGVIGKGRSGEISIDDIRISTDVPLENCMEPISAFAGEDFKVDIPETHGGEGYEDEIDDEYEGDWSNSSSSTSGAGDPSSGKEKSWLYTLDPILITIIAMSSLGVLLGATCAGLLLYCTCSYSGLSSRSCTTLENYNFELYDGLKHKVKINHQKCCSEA
UniProt P34152: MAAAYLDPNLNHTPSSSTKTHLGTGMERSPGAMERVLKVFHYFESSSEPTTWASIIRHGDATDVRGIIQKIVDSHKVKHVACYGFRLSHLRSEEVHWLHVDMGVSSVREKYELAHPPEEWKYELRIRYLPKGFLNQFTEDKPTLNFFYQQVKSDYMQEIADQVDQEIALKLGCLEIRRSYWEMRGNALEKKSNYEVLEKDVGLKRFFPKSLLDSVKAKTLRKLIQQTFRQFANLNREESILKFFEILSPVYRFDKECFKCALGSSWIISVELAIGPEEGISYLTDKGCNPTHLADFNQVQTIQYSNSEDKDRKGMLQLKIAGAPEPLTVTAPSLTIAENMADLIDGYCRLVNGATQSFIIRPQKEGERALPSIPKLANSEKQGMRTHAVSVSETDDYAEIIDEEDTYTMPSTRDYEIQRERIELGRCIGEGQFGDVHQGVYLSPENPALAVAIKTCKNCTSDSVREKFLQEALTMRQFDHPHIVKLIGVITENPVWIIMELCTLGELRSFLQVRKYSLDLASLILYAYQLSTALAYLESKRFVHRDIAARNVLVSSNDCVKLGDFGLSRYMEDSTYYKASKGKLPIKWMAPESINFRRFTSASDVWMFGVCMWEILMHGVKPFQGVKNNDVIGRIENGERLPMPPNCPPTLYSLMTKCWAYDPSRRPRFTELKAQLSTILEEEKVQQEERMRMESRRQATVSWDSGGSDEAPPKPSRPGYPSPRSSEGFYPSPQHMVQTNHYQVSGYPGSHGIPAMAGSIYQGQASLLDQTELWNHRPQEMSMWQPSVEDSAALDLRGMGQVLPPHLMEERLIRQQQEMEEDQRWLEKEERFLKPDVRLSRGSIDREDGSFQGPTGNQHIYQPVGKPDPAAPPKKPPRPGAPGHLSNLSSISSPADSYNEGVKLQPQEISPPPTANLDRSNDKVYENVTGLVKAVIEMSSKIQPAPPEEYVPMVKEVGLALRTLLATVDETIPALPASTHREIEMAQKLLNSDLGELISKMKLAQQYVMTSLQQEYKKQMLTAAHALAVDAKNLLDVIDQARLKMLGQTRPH

Key:
Assay in all cases: co-IP
[1] = molecular target: neuropilin 2 (mouse (endogenous in mouse lung microvascular ECs)) (UniProt O35375)
[2] = molecular target: focal adhesion kinase (mouse (endogenous in mouse lung microvascular ECs)) (UniProt P34152)
[3] = molecular target: neuropilin 2 (mouse (endogenous in mouse lung microvascular ECs)) (UniProt O35375); remark: listed apart in the source

Measured: binding

B1: GTPase-activating protein p120RasGAP (protein, UniProt E9PYG6 1-1038)
chain: MMAAEAGSEEGGPATAGPGGGAATGSSAYSAACRVKLPAALPVAAAPCPGLADADLVAALGGGAASGSGFLGTGPVAGVLGGAALTGSAAAGVAGAAAAGPAGDVAFTKGTLSLPAETLGPGGGFPPLPPPPQLPPLGSGLGTVDEGDSLDGPEYEEEEVAIPLTAPPTNQWYHGKLDRTIAEERLRQAGKSGSYLIRESDRRPGSFVLSFLSQTNVVNHFRIIAMCGDYYIGGRRFSSLSDLIGYYSHVSCLLKGEKLLYPVAPPEPVEDRRRVRAILPYTKVPDTDEISFLKGDMFIVHNELEDGWMWVTNLRTDEQGLIVEDLVEEVGREEDPHEGKIWFHGKISKQEAYNLLMTVGQVCSFLVRPSDNTPGDYSLYFRTNENIQRFKICPTPNNQFMMGGRYYNSIGDIIDHYRKEQIVEGYYLKEPVPMQDQGQVLNDTVDGKEIYNTIRRKTKDAFYKNIVKKGYLLKKGKGKRWKNLYFILEGSDAQLIYFESEKRATKPKGLIDLSVCSVYVVHDSLFGRPNCFQIVVQHFSEEHYIFYFAGETPEQAEDWMKGLQAFCSLRKSSPGTSNKRLRQVSSLVLHIEEAHKLPVKHFTNPYCNIYLNSVQVAKTHAREGQNPVWSEEFVFDDLPPDINRFEITLSNKTKKSKDPDILFMRCQLSRLQKGHATDEWFLLSSHIPLKGIEPGSLRVRARYSMEKIMPEEEYSEFKELILQKELHVVYALSHVCGQDRTLLASILLKIFLHEKLESLLLCTLNDREISMEDEATTLFRATTLASTLMEQYMKATATQFVHHALKDSILKIMESKQSCELSPSKLEKNEDVNTNLAHLLSILSELVEKIFMASEILPPTLRYIYGCLQKSVQHKWPTNNTMRTRVVSGFVFLRLICPAILNPRMFNIISDSPSPIAARTLTLVAKSVQNLANLVEFGAKEPYMEGVNPFIKSNKHRMIMFLDELGNVPELPDTTEHSRTDLSRDLAALHEICVAHSDELRTLSNERGVQQHVLKKLLAITELLQQKQNQYTKTNDIR
binds: all assays above
